No constants are given. Whether binding was seen depends on the method and setting. Some entries that bind do so weakly or less than the wild type.
Target: human 4-1BB (NCBI Accession No. NP_001552.2) (human) (UniProt Q07011)
Experiment: phage ELISA on 4-1BB antigen-coated plates, anti-M13 detection, TMB

By UniProt entry, the sequences of proteins in these tests, tags left out. Residues count along the entry.
UniProt Q07011, residues 24-186: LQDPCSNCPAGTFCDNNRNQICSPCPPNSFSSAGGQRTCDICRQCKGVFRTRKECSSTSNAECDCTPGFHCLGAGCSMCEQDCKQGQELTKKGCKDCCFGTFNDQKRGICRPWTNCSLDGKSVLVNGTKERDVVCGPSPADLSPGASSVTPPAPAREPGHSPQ

- binding: binds
B1: full human monoclonal antibody against 4-1BB (Table 1) (antibody, V domains shown)
VH: EVQLLESGGGLVQPGGSLRLSCAASGFTFSSYDMSWVRQAPGKGLEWVSWISYSGGSIYYADSVKGRFTISRDNSKNTLYLQMNSLRAEDTAVYYCARDAQRNSMREFDYWGQGTLVTVSS
VL: QSVLTQPPSASGTPGQRVTISCSGSSSNIGNNYVTWYQQLPGTAPKLLIYADSHRPSGVPDRFSGSKSGTSASLAISGLRSEDEADYYCATWDYSLSGYVFGGGTKLTVL

— patent US20240084025A1
